In publication PMC7531004 (Nature Communications, 2020):

experiment: general procedure: Fmoc solid-phase peptide synthesis; HMBA-TentaGel macrobeads (for 1); Fmoc-L-Trp(Boc)-HMBA-ChemMatrix resin (analogues); HATU/HOAt; conditions: whole synthesis

Substance | isolated mass
PEPTIDE1{[fo].V.G.A.[dL].A.[dL].V.[D-Asm].W.[dL].W.[dL].W.[dT].W.[Eta]}$$$$V2.0 | 15.5 mg
PEPTIDE1{[fo].V.G.A.[dL].A.[dL].V.[dL].W.[dL].W.[dT].W.[dV].W.[Eta]}$$$$V2.0 | 3.70 mg
PEPTIDE1{[fo].V.G.A.[dL].A.[dV].V.[dT].W.[dL].W.[dL].W.[dV].W.[Eta]}$$$$V2.0 | 4.64 mg
PEPTIDE1{[fo].V.G.A.[dL].A.[dV].V.[dV].W.[dV].W.[dL].W.[dV].W.[Eta]}$$$$V2.0 | 14.0 mg
PEPTIDE1{[fo].V.G.A.[dL].A.[dV].V.[dV].W.[dV].W.[dV].W.[dV].W.[Eta]}$$$$V2.0 | 6.07 mg
PEPTIDE1{[fo].V.G.A.[dT].A.[dL].V.[dL].W.[dT].W.[dL].W.[dV].W.[Eta]}$$$$V2.0 | 70.5 mg
PEPTIDE1{[fo].V.G.A.[dV].A.[dL].V.[dV].W.[dV].W.[dL].W.[dL].W.[Eta]}$$$$V2.0 | 7.03 mg
PEPTIDE1{[fo].V.G.A.[dV].A.[dV].V.[dV].W.[dL].W.[dV].W.[dV].W.[Eta]}$$$$V2.0 | 5.36 mg

same assay, conditions: whole synthesis, over 32 steps, scale of the general procedure 20.9 umol (1), 250, 45.0 or 30.0 umol of S3 (analogues)

Substance | isolated yield
PEPTIDE1{[fo].V.G.A.[dL].A.[dL].V.[D-Asm].W.[dL].W.[dL].W.[dT].W.[Eta]}$$$$V2.0 | 54%
PEPTIDE1{[fo].V.G.A.[dL].A.[dL].V.[dL].W.[dL].W.[dT].W.[dV].W.[Eta]}$$$$V2.0 | 13%
PEPTIDE1{[fo].V.G.A.[dL].A.[dV].V.[dT].W.[dL].W.[dL].W.[dL].W.[Eta]}$$$$V2.0 | 38%
PEPTIDE1{[fo].V.G.A.[dL].A.[dV].V.[dT].W.[dL].W.[dL].W.[dV].W.[Eta]}$$$$V2.0 | 17%
PEPTIDE1{[fo].V.G.A.[dL].A.[dV].V.[dV].W.[dV].W.[dL].W.[dV].W.[Eta]}$$$$V2.0 | 50%
PEPTIDE1{[fo].V.G.A.[dL].A.[dV].V.[dV].W.[dV].W.[dV].W.[dV].W.[Eta]}$$$$V2.0 | 22%
PEPTIDE1{[fo].V.G.A.[dT].A.[dL].V.[dL].W.[dT].W.[dL].W.[dV].W.[Eta]}$$$$V2.0 | 30%
PEPTIDE1{[fo].V.G.A.[dV].A.[dL].V.[dV].W.[dV].W.[dL].W.[dL].W.[Eta]}$$$$V2.0 | 25%
PEPTIDE1{[fo].V.G.A.[dV].A.[dV].V.[dV].W.[dL].W.[dL].W.[dL].W.[Eta]}$$$$V2.0 | 44%
PEPTIDE1{[fo].V.G.A.[dV].A.[dV].V.[dV].W.[dL].W.[dV].W.[dV].W.[Eta]}$$$$V2.0 | 19%

Strings that start with PEPTIDE1 are HELM notation: dots part the residues, brackets hold end groups and non-standard residues.
